The other results are listed elsewhere or left out. Some results are limits rather than exact numbers.

Broadly, the apparent Kd is the concentration giving half-maximal binding under the conditions of the assay.

B1: il10ra_site1_normal_mot_HHH_b2_07521_000000141_0001_20_37_H_._HHH_b2_00616_0001_0000500010_0000001_0 (protein)
chain: SSSSDEAERAVRRILEAAERAYELGDEEYVRLSLRFAKFLARAANDPEAERLVEEVEERLSSSSS
B2: il10ra_site1_normal_mot_ems_3hC_551_000000072_0001_1_18_H_._HHH_b2_07452_af2_0001_0000100004_0000002_0_af2pred_0001 (protein)
chain: SSSSSDEELVRLALRFAKFLLKYGDKESAENAVRSAQKLAEEGGNEELVEELEELEKQIKSSSSS
B3: il10ra_site1_sap_15_mot_HHH_b1_04905_af2_000000228_0001_1_17_H_._HHH_b1_05842_af2_0001_0000500008_0000002_0_0001_af2pred_0001 (protein)
chain: SSSSNDIERALEILIEAIEELLEQGDKERARLTVEIARRLAEDAGNEELLEILEELHELINSSSS
B4: il10ra_site1_normal_mot_HHH_b1_00456_000000263_0001_1_17_H_._HHH_b2_05705_af2_0001_0000300009_0000001_0_af2pred_0001 (protein)
chain: SSSSSSDEEEVEKLLEEAEHISDEREAAYVLVRAFAIALRLGDPELERLVKEVAQKLLSSSSSSS
B5: il10ra_site1_sap_16_mot_HHH_b2_07442_000000239_0001_40_54_H_._HHH_b2_00342_af2_0001_0000100001_0000001_0_0001_af2pred_0001 (protein)
chain: SSSADTEESLKLFLRFVEEALRRGDPERARLSLRFAKFLAEQAGNEELLRELERLEEELENSSSS
B6: il10ra_site1_normal_mot_HHH_b2_03328_af2_000000127_0001_1_19_H_._f3d5fbb9806109dc41c8faca98c9de00_0001_1_0001_0000300008_0000002_0_af2pred_dldesign_0_af2pred (protein)
chain: LELSRLLSDAVITAKNPELAQRLAEVAREIAEDPSKLEELLAELLEEAKAAGDEEVVALLEKALE
B7: il10ra_site1_sap_19_mot_HHH_b1_02997_000000220_0001_39_52_H_._HHH_b1_04476_0001_0000300011_0000001_0_0001 (protein)
chain: SSSSSAAHRAYELLRRAMELMDEGNPEEAEELLEEAEELLREAGDRVILHNVEYVLRKLNSSSSS
B8: il10ra_site1_sap_21_mot_HHH_b2_06321_af2_000000133_0001_22_38_H_._HHH_b2_05043_0001_0000300054_0000003_0_0001 (protein)
chain: SSSSSSSAKEEAEELLEEAREIEDKHEATRLLYRAARLAAKAHDDELIKEIMEVFARLSSSSSSS
B9: il10ra_site1_sap_13_mot_HHH_b1_03478_af2_000000027_0001_1_18_H_._HHH_b1_08739_0001_0000100006_0000001_0_0001 (protein)
chain: SSDRHQEFFRVVKEAIEAASDNDEEEAEELVKEAEKIAEEIGDRIAKMIVKFVKELVEKLRSSSS
B10: il10ra_site1_normal_mot_HHH_b1_04065_000000255_0001_41_56_H_._HHH_b1_08168_0001_0000400026_0000001_0_af2pred_0001 (protein)
chain: SSSSSEEEELEELLEKLEKLAEEGDEEKFLQLFVRVSKLAHEAKDEEIARLLDELAREFFSSSSS
B11: il10ra_site1_normal_mot_HHH_b2_02337_000000026_0001_38_52_H_._HHH_b2_04339_af2_0001_0000100005_0000001_0 (protein)
chain: SSSSSDEEELKELIEEIEELLENGNPEEASELAQRAVQLAFELQDQEALQRLWELVQLAGSSSSS
B12: il10ra_site1_sap_13_mot_HHH_b2_07690_000000074_0001_19_35_H_._HHH_b1_01657_0001_0000200021_0000001_1_0001 (protein)
chain: SSSSSDEEELAEALERIIQQLLEWGDPEAARMHILALEMLAEELNDPELERLVEELKELLSSSSS
B13: il10ra_site1_normal_mot_HHH_b2_08186_000000021_0001_43_56_H_._HHH_b1_08292_af2_0001_0000300010_0000002_0 (protein)
chain: SSSSSSEEEEEVERLLEELEKIKDREEFLRLAQEILRLIFELGNDELLQRLWEILKKSHSSSSSS
B14: il10ra_site1_normal_mot_8756ee2cf497b5429c717dfc0c0bcfd6_0001_000000186_0001_1_13_H_._HHH_b1_07051_af2_0001_0000100003_0000001_0_af2pred_0001 (protein)
chain: SSSTKATEVARILRKAIELLSDGDKEEAERLVREAEELAEEINNEALRVIIEFLERLIRRLSSSS
B15: il10ra_site1_sap_14_mot_HHH_b1_06339_000000020_0001_43_57_H_._HHH_b1_01166_0001_0000100001_0000001_0_0001 (protein)
chain: SSSSSSQEVMKLIREAVELLQQGDPEEAEKVAEEAVELARELGNWVLRFAAEHLLRDIENSSSSS
B16: il10ra_site1_normal_mot_8756ee2cf497b5429c717dfc0c0bcfd6_0001_000000186_0001_1_13_H_._HHH_b1_02199_af2_0001_0000500036_0000003_0_af2pred_0001 (protein)
chain: SSSSSLSQRILELLRRAAELLREGDPEEAEELIREAEELAEEANNLAAQAVIKFMLKIVNSSSSS
B17: il10ra_site1_sap_18_mot_HHH_b2_04679_000000194_0001_21_38_H_._HHH_b1_05122_0001_0000300011_0000001_0_0001 (protein)
chain: SSSSSSIIRIAQEAIRLAIQLGDEETFQEIWRLAKEYKETGDPRIEEELEELLEELERRGSSSSS
B18: il10ra_site1_normal_mot_HHH_b2_03418_af2_000000231_0001_1_17_H_._HHH_b1_05635_0001_0000300018_0000002_0 (protein)
chain: SSSSDEEVEELLERAEELLERGDLKEAAEVITKAWILALRLRDQELARLAAELAQIANELQSSSS
B19: il10ra_site1_sap_16_mot_HHH_b1_02997_000000220_0001_39_52_H_._HHH_b2_05611_af2_0001_0000400043_0000002_0_0001_af2pred_0001 (protein)
chain: SSSSSEAARIAHEVAEEVAKLREEGDEEEARRLLEEALERLEELNNPLAAHNIRHLLRDLESSSS
B20: il10ra_site1_sap_31_mot_HHH_b1_01879_000000050_0001_1_18_H_._HHH_b2_03374_0001_0000100006_0000002_0_0001 (protein)
chain: SSSSSESEEAYRLLREAMELIDDGNPEEARKVLEEAEELAEEGNNPLILRQLEFVKRDLEGSSSS
B21: il10ra_site1_normal_mot_HHH_b1_06994_000000193_0001_40_55_H_._HHH_b1_03771_0001_0000300019_0000001_0 (protein)
chain: SSSSSQEEELLRALERLIEQALEAGNPRAAKFLIWAAKLLAKELGDEETLEELEELEKRVDSSSS
B22: il10ra_site1_normal_mot_HHH_b1_02809_af2_000000277_0001_40_57_H_._HHH_b2_00812_0001_0000300019_0000001_0 (protein)
chain: SSSSSREEASRLFVEAARALQEGDREEAEELLEELRELVEELGDKRLELSLRFLEALVRFLSSSS
B23: il10ra_site1_normal_mot_HHH_b2_02725_000000049_0001_1_17_H_._HHH_b2_00579_0001_0000300016_0000001_0 (protein)
chain: SSSSSDDELYKEVKELLEEATEIEDPEERREVLEEAKELAEELGNEALLHAVEYLERIQSSSSSS
B24: il10ra_site1_normal_mot_HHH_b2_03708_000000000_0001_1_18_H_._HHH_b2_04055_af2_0001_0000300024_0000001_0 (protein)
chain: SSSSDERQRLSELLLEAFRLALRGNPEEARELLEEAEELAEKLGDEEIARLVRDLLQALHSSSSS

The assay has as its target il10ra, Q13651. Put plainly: yeast display titration.
As to B1, the “apparent Kd” value is “inactive: no binding seen”.
B2: the “apparent Kd” value was “inactive: no binding seen”.
For the molecule B3, the “apparent Kd” value is “inactive: no binding seen”.
B4: the “apparent Kd” value is “inactive: no binding seen”.
Regarding B5, the “apparent Kd” value is “inactive: no binding seen”.
The value for B6 was “inactive: no binding seen”; that for B7 was “inactive: no binding seen”.
The same measure for B8: inactive: > 305 nM.
As for B9, the “apparent Kd” value is “inactive: no binding seen”.
The value for B10 was “inactive: no binding seen”; that for B11 was “inactive: no binding seen”.
B12: the “apparent Kd” value is “inactive: no binding seen”.
The same measure for B13: “inactive: no binding seen”; for B14: “inactive: no binding seen”.
The value for B15 was “inactive: no binding seen”.
The value for B16 was “inactive: no binding seen”; that for B17 was “inactive: no binding seen”; that for B18 was “inactive: no binding seen”.
Turning to B19, the “apparent Kd” value was “inactive: no binding seen”.
Regarding B20, the “apparent Kd” value was “inactive: no binding seen”.
Take B21: the “apparent Kd” value was “inactive: no binding seen”.
With B22, the “apparent Kd” value was “inactive: no binding seen”.
As for B23, the “apparent Kd” value was “inactive: no binding seen”.
As to B24, the “apparent Kd” value was “inactive: no binding seen”.
